# According to PubChem BioAssay AID2685 (National Center for Advancing Translational Sciences (NCATS), 2010):
# Out of some 320,000 compounds screened, about 2,100 (0.66%) were called active. This list was built around the results that the source calls inconclusive (neither active nor inactive); the mix of calls is not that of the screen. The call rests on the fitted dose curve; in most records, active means well fitted inhibition curve with a large enough effect in the signal ratio, with a control signal flat (not every such curve was filed as active); inconclusive means small, poorly fitted or top-dose-only effect, or effect the other way, or a change in a side signal; inactive means flat fitted curve, though single readings scatter; the % refers to the signal ratio. Where the call is inconclusive, the potency comes from a doubtful curve fit.
# Experiment: qHTS Assay for Lipid Storage Modulators in Drosophila S3 Cells
# Details: BODIPY lipid droplet fluorescence, 18-24 h, cells fed with added oleic acid; lipid storage change, negative = inhibition: at 46.1 µM (top of the series) unless noted
# Procedure, shortened: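 Drosophila S3 cells loaded with oleic acid (400 uM, as added) and compounds at several concentrations; lipid droplets imaged by 488-nm laser-scanning cytometry, 500–530 nm intensity and object ratio to cell channel. Percent activity normalized to 20 uM Triacsin C.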
# On the % scale 0 is the no-effect control and ±100 the full control effect; potency means the concentration at half of the fitted maximal effect.
SMILES,Potency,"lipid storage change, negative = inhibition"
O=C(CCC1CCN(C(=O)c2ccccc2Cl)CC1)NCc1ccc(F)cc1,"inconclusive: 29.1 µM [falling, single point]",–
Clc1ccc(-c2nn3c(-c4cccc(Cl)c4)nnc3s2)cc1,–,inconclusive: -45.3%
CCOc1ccc(CNC(=O)CCCc2cn(C)c3ccccc23)cc1OC,–,inconclusive: -25.3%
COC(=O)[C@H](Cc1ccccc1)NC(=O)c1cc(COc2c(F)cccc2F)on1,–,inconclusive: -8.29%
CCOc1ccc(N2CC(C(=O)NC3=NCCS3)CC2=O)cc1 (stereo not drawn),"inconclusive: 6.51 µM [falling, single point]",–
CC(C)(C)NC(=O)C(c1ccncc1)N(Cc1cccs1)C(=O)Cn1nnc(-c2cccs2)n1 (stereo not drawn),"inconclusive: 18.4 µM [activator, single point]",–
CCC(=O)NNc1nc2c(C)cc(C)cc2s1,–,inconclusive: 42.5%
O=C(CNc1cccc([N+](=O)[O-])c1)NCCCc1ccccc1,–,inconclusive: 17.6%
[O-]C1=N/[N+](=C/c2ccc(Cl)c(Cl)c2)CC1,"inconclusive: 0.164 µM [falling, full curve, poor fit]",–
N#C/C(=C\c1cc([N+](=O)[O-])ccc1Cl)C(N)=O,–,inconclusive: -10.4%
O=c1c(=O)n(O)c2ccccc2n1O,–,inconclusive: -23.7%
Cc1csc(NC(=O)CCN2C(=O)c3ccccc3S2(=O)=O)n1,–,inconclusive: 41.4%
Cc1ccc(Cl)cc1N1CCN(C(c2cccnc2)c2nnnn2C2CCCCC2)CC1 (stereo not drawn),"inconclusive: 1.84 µM [activator, partial curve]",–
Brc1ccc(NCc2cccc3ccccc23)nc1,–,inconclusive: 17.7%
COC(=O)[C@]1(C)CCC[C@@]2(C)C3CC[C@]4(OC(C)=O)C[C@@]3(CCC21)CC4=NO (stereo partly drawn),–,inconclusive: -24.5%
FC(F)(F)C1=CC(c2ccccc2)=NCCN1,–,inconclusive: -5.02%
Cc1cc(OCC(=O)NCCCN2CCCC2=O)c2c(C)c(C)c(=O)oc2c1,–,inconclusive: -46%
CCOC(=O)c1cnc(SC)nc1NCCOC,–,inconclusive: -23%
CN1CCc2cc3c(c4c2[C@H]1[C@H](O)c1ccccc1-4)OCO3,–,inconclusive: 0.35%
CC(C)c1ccc(/C=N/NC(=O)c2nnn(-c3nonc3N)c2CSC2=NCCS2)cc1,–,inconclusive: -125%
CCOc1ccc(NC(=O)CC2C(=O)N(CC)C(=S)N2NC(=O)c2ccncc2)cc1 (stereo not drawn),–,inconclusive: -37.4%
O=C(CN1CCN(Cc2ccccc2)CC1)Nc1ccc(S(=O)(=O)N2CCOCC2)cc1,"inconclusive: 6.51 µM [falling, single point]",–
COCCCN(C(=S)Nc1cccc(Cl)c1)C(C)c1ccncc1 (stereo not drawn),–,inconclusive: -54.7%
Cc1ccc(N(Cc2cc(=O)[nH]c3ccccc23)C(=O)CCl)cc1,"inconclusive: 20.6 µM [falling, single point]",–
COc1ccc(C(C)=O)cc1COc1cccc2cccnc12,–,inconclusive: 22.2%
CC(=O)Nc1ccc(N2CCCC2)cc1,"inconclusive: 1.64 µM [falling, partial curve]",–

SMILES,Potency,"lipid storage change, negative = inhibition"
COC(=O)c1sccc1NS(=O)(=O)c1ccccc1,–,inconclusive: 21.6%
COCCn1c(C23CC4CC(CC(C4)C2)C3)n[nH]c1=S,"inconclusive: 1.16 µM [activator, full curve]",–
CCN1CCN(CCCNC(=O)c2ccc3c(Cl)c4c(nc3c2)CCCC4)CC1,"inconclusive: 29.1 µM [rising, single point]",–
CSc1nnc2ccc(-c3cccs3)nn12,–,inconclusive: 16.3%
CC(NC(=O)Cc1ccccc1[N+](=O)[O-])c1ccccc1 (stereo not drawn),–,inconclusive: -28.3%
Cc1cc(C(=O)Nc2cccc(/C=C/C(=O)O)c2)c(C)o1,–,inconclusive: 33.1%
O=S(=O)(Cc1ccc(Cl)cc1)N1CCCCCC1,–,inconclusive: -12.4%
Cc1ccc(N2C(=O)N(CC(=O)Nc3cccc(C)c3C)C(=O)C2C)cc1 (stereo not drawn),–,inconclusive: 53.2%
Cn1c(NC(=O)c2ccccc2)cc(=O)n(C)c1=O,–,inconclusive: 63.2%
O=C(/C=C/c1cccs1)c1ccc(N2CCOCC2)cc1,–,inconclusive: 22.7%
Cc1ccc(-c2nn3c(C)nnc3s2)cc1NC(=O)c1ccc(Br)o1,"inconclusive: 0.0046 µM [activator, full curve, poor fit]",–
C=CCn1c(=O)/c(=C/c2ccc(C)o2)s/c1=C(/C#N)C(=O)c1ccccc1,–,inconclusive: 72.6%
O=C(NCCc1ccccc1)c1noc2c1CCCCC2,–,inconclusive: 32.2%
CCOC(=O)/C=C1\NC(=O)CS1,–,inconclusive: -5.9%
O=c1[nH]c(CN2CCN(Cc3ccc4c(c3)OCO4)CC2)nc2sc3c(c12)CCC3,"inconclusive: 3.66 µM [falling, single point]",–
CC1S/C(=C(\C#N)C(N)=O)N(c2ccc(F)cc2)C1=O (stereo not drawn),–,inconclusive: -3.26%
CC(C)C(C)NC(=O)CN1C(=O)NC2(CCc3ccccc32)C1=O (stereo not drawn),–,inconclusive: -21.4%
CCCCNC(=O)CN(c1cc(C(F)(F)F)ccc1Cl)S(C)(=O)=O,–,inactive
COCc1cc(C)nc(N/N=C/c2ccc(-c3ccc(C(=O)O)c(Cl)c3)o2)c1C#N,–,inconclusive: -22.3%
COc1ccccc1CNC(=O)C1(NC(=O)Nc2ccc(C)cc2)CCCCC1,–,inconclusive: 22.8%
CCCC(c1nnnn1CS(=O)(=O)c1ccc(C)cc1)N1CCN(CC)CC1 (stereo not drawn),–,inconclusive: 22.2%
O=C1C2C3C=CC(C4CC34)C2C(=O)N1/N=C/c1cccs1 (stereo not drawn),–,inconclusive: 223%
N#Cc1c(SCC(=O)Nc2cccc(C(F)(F)F)c2)sc2c(O)cc(=O)[nH]c12,"inconclusive: 23.1 µM [activator, partial curve]",–
CCOC(=O)N1CCN(S(=O)(=O)c2ccc(C(=O)NNc3nc4ccc(Cl)cc4s3)cc2)CC1,–,inconclusive: -6.92%
Cn1c(=O)c2c(-c3ccccc3)n(-n3cnnc3)cc2n(C)c1=O,"inconclusive: 29.1 µM [falling, single point]",–
O=S(=O)(c1ccc(SCCO)nc1)N1CCCC1,–,inconclusive: 2.42%

# An excerpt from further up, as a working copy:
SMILES,Potency,"lipid storage change, negative = inhibition"
COc1ccccc1CNC(=O)C1(NC(=O)Nc2ccc(C)cc2)CCCCC1,–,inconclusive: 22.8%
CCCC(c1nnnn1CS(=O)(=O)c1ccc(C)cc1)N1CCN(CC)CC1 (stereo not drawn),–,inconclusive: 22.2%
O=C1C2C3C=CC(C4CC34)C2C(=O)N1/N=C/c1cccs1 (stereo not drawn),–,inconclusive: 223%
N#Cc1c(SCC(=O)Nc2cccc(C(F)(F)F)c2)sc2c(O)cc(=O)[nH]c12,"inconclusive: 23.1 µM [activator, partial curve]",–
CCOC(=O)N1CCN(S(=O)(=O)c2ccc(C(=O)NNc3nc4ccc(Cl)cc4s3)cc2)CC1,–,inconclusive: -6.92%
Cn1c(=O)c2c(-c3ccccc3)n(-n3cnnc3)cc2n(C)c1=O,"inconclusive: 29.1 µM [falling, single point]",–

# Next records:

SMILES,Potency,"lipid storage change, negative = inhibition"
O=C1c2cccc3cccc(c23)C(=O)N1c1nncs1,–,inconclusive: 50.8%
CC1(c2cccc(Br)c2)NC(=O)N(CC(=O)Nc2ccc(S(N)(=O)=O)cc2)C1=O (stereo not drawn),"inconclusive: 0.651 µM [activator, partial curve, poor fit]",–
O=C(COC(=O)c1cccc(S(=O)(=O)N2CCCC2)c1)Nc1ccccc1C(F)(F)F,–,inconclusive
COc1ccc(NC(=O)C2CCN(S(=O)(=O)c3c(C)noc3C)CC2)cc1OC,–,inactive
C/C(=C\c1ccc2c(c1)OCO2)C1Nc2cccc3cccc(c23)N1,–,inconclusive: -2.05%
NC1=NC(c2cccc(O)c2)n2c(nc3ccccc32)N1 (stereo not drawn),–,inconclusive: -15.7%
Cc1cc(NC(=O)/C=C/c2ccccc2Cl)n(-c2nc3ccccc3[nH]2)n1,"inconclusive: 29.1 µM [falling, single point]",–
O=C(CP(=O)(c1ccccc1)c1ccccc1)N1CCCCC1,–,inconclusive: -56.7%
CC[C@H](C)C(N)c1cn([C@@H](CC(N)=O)C(=O)N2CCNCC2)nn1 (stereo partly drawn),"inconclusive: 25.9 µM [activator, single point]",–
CN(CCOc1ccc(-c2ccn(S(=O)(=O)c3ccc(Cl)cc3)n2)cc1)c1ccccn1,"inconclusive: 0.184 µM [activator, full curve, poor fit]",–
Cn1nccc1C(=O)N1CCOCC1,–,inconclusive: 3.76%
O=c1c(/C=N/OCc2ccc(Cl)cc2Cl)c[nH]n1-c1cccc(Cl)n1,–,inconclusive: 9.11%
O=C(O)C(CCCCN1C(=O)c2ccccc2C1=O)N1C(=O)c2ccccc2C1=O (stereo not drawn),active: 29.1 µM,–
Cc1ccccc1-n1ncc2c1CC(C)(C)CC2NC(=O)CSc1ccncc1 (stereo not drawn),active: 0.461 µM,–
CCCN(CC(=O)Nc1ccccc1C)C(=O)c1cccc(S(=O)(=O)N2CCN(c3ccccc3)CC2)c1,"inconclusive: 2.06 µM [rising, single point]",–
COc1ccc(-c2cc(C(=O)N3CCCC3)no2)cc1,"inconclusive: 14.6 µM [falling, single point]",–
Cc1cccc(N2CCN(C(=O)CC(NC(=O)c3ccccc3)c3ccccc3)CC2C)c1 (stereo not drawn),–,inconclusive: -9.96%
CCCCC(CC)C(=O)NCCCN1CCN(CCCNC(=O)C(CC)CCCC)CC1 (stereo not drawn),–,inconclusive: 59.7%
CC(O)c1cc2c(cc1NC(=O)c1cnn3c1NC(c1ccco1)CC3C(F)(F)F)OCO2 (stereo not drawn),"inconclusive: 2.06 µM [activator, full curve]",–
O=C(COC(=O)c1ccccc1)NCCC1=CCCCC1,–,inconclusive: -9.36%
CCN(CC(=O)Nc1c(F)cccc1F)C(=O)c1ccc(=O)n(Cc2ccccc2)n1,"inconclusive: 0.231 µM [activator, partial curve]",–
CN(c1ccc(OCC(=O)Nc2nc(-c3ccccc3)cs2)cc1)S(=O)(=O)c1ccc(F)cc1,"inconclusive: 1.84 µM [activator, full curve, poor fit]",–
Cc1ccc(CN(c2ccc(C(=O)N3CCOCC3)cc2)S(C)(=O)=O)cc1,–,inconclusive: -33.3%
COc1cccc(NC(=O)CN(C)CC(=O)NC(C)c2ccccc2)c1 (stereo not drawn),–,inconclusive: -17.6%
COc1ccc(/C=N/Nc2ccc(C(=O)O)cc2)c(OC)c1OC,–,inconclusive: -12.6%
Cc1nnc(NCc2n[nH]c(=O)c3ccccc23)c2ccccc12,–,inconclusive: 13.1%
